Experimental data published in publication PMC7726220.
Results are given in words; binding and its absence hold for the method and conditions named. Binding seen in cells or lysates may run through a third protein. These calls come from enrichment with a bait or labelling near it, and not all partners need be listed. Sequences can lack the tags named with a protein.

Target: T1, TMEM132A-SBP-CBP-Flag (from pSCDTG(P)-T132A, TMEM132A-SBP-CBP-Flag-T2A-turbo GFP) (mouse) (UniProt Q922P8)
T1 sequence: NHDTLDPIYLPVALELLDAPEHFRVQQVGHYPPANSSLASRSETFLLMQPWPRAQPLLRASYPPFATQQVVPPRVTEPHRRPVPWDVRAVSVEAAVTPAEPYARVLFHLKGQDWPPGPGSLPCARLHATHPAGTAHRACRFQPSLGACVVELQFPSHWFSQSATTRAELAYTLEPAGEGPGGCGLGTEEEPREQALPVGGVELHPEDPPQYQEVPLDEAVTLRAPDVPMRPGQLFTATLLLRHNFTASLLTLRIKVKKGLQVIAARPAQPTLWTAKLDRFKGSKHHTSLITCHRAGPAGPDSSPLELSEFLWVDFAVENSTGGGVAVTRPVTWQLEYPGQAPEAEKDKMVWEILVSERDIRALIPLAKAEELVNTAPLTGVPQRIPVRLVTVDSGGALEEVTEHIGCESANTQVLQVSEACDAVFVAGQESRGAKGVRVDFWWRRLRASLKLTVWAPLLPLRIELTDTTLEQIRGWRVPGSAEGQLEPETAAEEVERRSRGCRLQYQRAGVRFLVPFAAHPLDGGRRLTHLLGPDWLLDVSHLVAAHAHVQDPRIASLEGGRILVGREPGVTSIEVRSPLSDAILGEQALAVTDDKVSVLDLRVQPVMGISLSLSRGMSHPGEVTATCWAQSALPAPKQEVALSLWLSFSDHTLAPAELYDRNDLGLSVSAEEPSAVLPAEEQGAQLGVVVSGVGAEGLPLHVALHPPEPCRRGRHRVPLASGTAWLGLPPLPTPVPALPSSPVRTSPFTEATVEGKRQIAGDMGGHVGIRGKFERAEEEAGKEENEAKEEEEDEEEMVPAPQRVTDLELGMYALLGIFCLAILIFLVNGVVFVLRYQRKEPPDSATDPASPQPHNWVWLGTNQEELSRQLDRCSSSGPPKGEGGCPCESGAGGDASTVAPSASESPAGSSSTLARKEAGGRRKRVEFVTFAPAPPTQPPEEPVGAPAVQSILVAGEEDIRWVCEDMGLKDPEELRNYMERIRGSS
Assay: affinity purification with mass spectrometry; HEK 293T cells with stable integration of TMEM132A-SBP-CBP-Flag; tandem affinity purification (InterPlay TAP kit), FASP, mass spectrometry; control vector pSCDTG(P)

- binding: binds
B1: endogenous WLS of HEK 293T cells (protein, UniProt Q5T9L3 1-541)
chain: MAGAIIENMSTKKLCIVGGILLVFQIIAFLVGGLIAPGPTTAVSYMSVKCVDARKNHHKTKWFVPWGPNHCDKIRDIEEAIPREIEANDIVFSVHIPLPHMEMSPWFQFMLFILQLDIAFKLNNQIRENAEVSMDVSLAYRDDAFAEWTEMAHERVPRKLKCTFTSPKTPEHEGRYYECDVLPFMEIGSVAHKFYLLNIRLPVNEKKKINVGIGEIKDIRLVGIHQNGGFTKVWFAMKTFLTPSIFIIMVWYWRRITMMSRPPVLLEKVIFALGISMTFINIPVEWFSIGFDWTWMLLFGDIRQGIFYAMLLSFWIIFCGEHMMDQHERNHIAGYWKQVGPIAVGSFCLFIFDMCERGVQLTNPFYSIWTTDIGTELAMAFIIVAGICLCLYFLFLCFMVFQVFRNISGKQSSLPAMSKVRRLHYEGLIFRFKFLMLITLACAAMTVIFFIVSQVTEGHWKWGGVTVQVNSAFFTGIYGMWNLYVFALMFLYAPSHKNYGEDQSNGDLGVHSGEELQLTTTITHVDGPTEIYKLTRKEAQE
